According to the supplement of paper PMC10849652:
This is one part of the list.

The chains behind the UniProt entries cited, without tags or fusion partners. Where a name states a change or a piece, a line headed by the entry shows the natural chain unless it says otherwise.
UniProt Q96B26, whole entry, looked up: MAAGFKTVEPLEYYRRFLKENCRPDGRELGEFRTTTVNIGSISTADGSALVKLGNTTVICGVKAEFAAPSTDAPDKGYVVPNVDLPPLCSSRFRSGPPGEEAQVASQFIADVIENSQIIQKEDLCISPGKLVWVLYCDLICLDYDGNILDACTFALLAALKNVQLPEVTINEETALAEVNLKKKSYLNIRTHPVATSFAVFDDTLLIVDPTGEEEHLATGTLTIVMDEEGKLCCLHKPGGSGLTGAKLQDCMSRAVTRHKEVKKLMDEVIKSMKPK
UniProt Q9Y421: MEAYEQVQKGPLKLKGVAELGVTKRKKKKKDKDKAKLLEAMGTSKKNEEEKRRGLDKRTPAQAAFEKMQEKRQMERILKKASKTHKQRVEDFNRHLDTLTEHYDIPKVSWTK
UniProt Q8TAV0: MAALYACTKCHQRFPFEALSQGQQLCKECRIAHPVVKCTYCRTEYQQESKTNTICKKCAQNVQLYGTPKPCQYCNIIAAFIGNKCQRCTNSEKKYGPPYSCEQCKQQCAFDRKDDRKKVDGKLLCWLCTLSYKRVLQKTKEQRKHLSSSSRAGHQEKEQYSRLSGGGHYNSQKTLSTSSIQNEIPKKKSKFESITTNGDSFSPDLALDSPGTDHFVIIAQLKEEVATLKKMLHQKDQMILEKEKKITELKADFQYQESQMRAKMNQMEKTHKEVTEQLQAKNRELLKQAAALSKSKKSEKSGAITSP
UniProt P13804: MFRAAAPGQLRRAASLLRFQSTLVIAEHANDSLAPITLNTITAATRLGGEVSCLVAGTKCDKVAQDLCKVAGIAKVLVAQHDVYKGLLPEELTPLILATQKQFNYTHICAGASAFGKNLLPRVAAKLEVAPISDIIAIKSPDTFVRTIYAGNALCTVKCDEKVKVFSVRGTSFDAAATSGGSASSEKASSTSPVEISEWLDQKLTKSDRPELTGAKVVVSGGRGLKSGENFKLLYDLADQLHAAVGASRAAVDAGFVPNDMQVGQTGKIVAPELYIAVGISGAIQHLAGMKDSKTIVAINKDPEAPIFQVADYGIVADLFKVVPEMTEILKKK
UniProt Q99504: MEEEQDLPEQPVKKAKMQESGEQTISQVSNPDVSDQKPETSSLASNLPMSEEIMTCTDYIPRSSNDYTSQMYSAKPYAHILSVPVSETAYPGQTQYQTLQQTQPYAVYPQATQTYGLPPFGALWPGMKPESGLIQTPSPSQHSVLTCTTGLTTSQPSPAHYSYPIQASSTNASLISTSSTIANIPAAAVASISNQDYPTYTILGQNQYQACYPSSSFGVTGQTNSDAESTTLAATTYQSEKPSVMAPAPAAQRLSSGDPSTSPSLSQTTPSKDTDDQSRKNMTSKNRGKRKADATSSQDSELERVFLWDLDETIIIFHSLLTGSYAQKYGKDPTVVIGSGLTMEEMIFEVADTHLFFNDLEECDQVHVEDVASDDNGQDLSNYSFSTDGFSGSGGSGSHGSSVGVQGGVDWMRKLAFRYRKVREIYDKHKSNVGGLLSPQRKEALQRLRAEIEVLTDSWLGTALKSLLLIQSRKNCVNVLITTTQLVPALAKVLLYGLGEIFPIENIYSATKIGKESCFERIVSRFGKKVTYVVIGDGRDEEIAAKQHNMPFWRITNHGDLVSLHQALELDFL
UniProt O75063: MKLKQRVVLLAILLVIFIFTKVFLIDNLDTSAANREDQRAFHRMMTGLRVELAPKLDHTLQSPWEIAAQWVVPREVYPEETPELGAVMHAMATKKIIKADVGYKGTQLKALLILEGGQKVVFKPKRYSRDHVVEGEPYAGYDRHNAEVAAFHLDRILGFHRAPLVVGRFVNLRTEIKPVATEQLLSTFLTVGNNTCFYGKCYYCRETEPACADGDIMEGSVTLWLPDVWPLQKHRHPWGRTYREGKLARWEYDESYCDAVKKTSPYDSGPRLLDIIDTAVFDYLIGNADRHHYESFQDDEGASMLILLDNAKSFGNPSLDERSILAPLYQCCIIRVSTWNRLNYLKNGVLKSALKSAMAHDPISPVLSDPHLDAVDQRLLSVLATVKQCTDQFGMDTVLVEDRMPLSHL
UniProt Q9GZU8: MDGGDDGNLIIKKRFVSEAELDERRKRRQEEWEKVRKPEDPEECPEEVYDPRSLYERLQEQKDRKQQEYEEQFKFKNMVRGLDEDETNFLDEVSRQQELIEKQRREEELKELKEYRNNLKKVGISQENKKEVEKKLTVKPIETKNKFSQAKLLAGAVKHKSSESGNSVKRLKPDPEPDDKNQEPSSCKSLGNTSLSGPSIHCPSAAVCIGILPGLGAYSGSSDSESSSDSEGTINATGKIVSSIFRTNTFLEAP
UniProt O94905: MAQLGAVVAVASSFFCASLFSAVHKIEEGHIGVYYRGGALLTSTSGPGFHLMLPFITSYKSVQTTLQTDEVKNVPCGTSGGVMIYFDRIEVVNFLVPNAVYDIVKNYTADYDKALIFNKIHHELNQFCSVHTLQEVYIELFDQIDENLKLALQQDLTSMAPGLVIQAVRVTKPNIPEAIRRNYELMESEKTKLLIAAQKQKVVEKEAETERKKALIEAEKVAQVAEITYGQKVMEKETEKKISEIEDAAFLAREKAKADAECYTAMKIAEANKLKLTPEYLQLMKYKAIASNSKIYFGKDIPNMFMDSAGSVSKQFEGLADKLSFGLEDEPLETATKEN
UniProt Q9NQT5, whole entry, looked up: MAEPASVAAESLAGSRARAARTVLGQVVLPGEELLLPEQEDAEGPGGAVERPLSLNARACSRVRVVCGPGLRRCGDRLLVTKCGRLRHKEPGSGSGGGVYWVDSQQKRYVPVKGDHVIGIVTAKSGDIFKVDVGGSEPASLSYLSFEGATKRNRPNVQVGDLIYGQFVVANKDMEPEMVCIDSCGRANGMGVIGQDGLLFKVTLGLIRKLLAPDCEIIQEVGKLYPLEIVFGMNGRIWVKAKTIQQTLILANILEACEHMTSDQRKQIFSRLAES
UniProt Q13158: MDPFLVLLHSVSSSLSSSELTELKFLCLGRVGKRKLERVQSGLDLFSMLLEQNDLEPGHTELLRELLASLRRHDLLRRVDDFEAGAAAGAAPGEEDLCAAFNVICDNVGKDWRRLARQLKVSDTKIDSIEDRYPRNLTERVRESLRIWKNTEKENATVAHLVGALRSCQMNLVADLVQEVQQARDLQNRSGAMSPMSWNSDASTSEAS
UniProt Q96GK7: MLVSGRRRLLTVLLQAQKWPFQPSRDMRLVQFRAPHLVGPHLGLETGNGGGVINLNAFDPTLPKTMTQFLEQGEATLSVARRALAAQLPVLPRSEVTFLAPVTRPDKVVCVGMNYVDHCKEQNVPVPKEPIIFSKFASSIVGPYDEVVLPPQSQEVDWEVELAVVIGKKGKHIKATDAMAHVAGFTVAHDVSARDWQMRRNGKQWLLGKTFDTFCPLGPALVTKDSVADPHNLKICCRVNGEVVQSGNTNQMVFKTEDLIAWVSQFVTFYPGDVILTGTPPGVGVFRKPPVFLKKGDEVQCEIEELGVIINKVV
UniProt Q9H4H8: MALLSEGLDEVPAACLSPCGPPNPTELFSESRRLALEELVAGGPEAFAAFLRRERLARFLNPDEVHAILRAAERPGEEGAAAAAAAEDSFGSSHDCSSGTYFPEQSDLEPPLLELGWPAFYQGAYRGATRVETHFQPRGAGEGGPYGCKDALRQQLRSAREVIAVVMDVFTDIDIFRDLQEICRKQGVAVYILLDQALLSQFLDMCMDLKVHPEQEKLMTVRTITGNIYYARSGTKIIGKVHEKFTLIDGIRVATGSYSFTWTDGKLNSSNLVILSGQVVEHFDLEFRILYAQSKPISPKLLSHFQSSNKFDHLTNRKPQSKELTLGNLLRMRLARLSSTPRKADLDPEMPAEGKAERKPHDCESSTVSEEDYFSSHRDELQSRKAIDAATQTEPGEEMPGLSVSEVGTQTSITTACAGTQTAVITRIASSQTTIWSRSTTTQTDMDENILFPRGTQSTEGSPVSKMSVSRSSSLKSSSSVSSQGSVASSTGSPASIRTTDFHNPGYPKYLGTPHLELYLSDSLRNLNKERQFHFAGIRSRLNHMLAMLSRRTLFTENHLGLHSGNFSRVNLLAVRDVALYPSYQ
UniProt Q8IYI6: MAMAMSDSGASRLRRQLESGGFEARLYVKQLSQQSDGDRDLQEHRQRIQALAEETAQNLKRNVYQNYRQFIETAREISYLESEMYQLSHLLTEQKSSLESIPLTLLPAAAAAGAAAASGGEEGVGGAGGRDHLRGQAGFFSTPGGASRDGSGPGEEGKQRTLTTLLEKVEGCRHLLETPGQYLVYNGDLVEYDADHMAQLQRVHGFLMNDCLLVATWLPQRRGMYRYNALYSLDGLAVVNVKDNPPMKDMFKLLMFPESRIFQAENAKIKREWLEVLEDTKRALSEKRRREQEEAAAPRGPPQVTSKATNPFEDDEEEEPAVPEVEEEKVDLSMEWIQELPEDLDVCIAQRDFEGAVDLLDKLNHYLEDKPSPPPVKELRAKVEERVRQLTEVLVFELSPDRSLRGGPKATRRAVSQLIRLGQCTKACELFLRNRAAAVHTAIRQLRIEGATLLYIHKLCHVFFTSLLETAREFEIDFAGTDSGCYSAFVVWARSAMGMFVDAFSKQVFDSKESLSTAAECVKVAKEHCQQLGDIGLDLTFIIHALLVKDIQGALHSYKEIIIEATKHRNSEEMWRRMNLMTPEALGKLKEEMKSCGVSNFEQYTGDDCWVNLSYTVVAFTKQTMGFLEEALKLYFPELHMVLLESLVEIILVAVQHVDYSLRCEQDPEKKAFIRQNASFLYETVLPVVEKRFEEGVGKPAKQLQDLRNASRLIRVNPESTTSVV
UniProt Q7Z309: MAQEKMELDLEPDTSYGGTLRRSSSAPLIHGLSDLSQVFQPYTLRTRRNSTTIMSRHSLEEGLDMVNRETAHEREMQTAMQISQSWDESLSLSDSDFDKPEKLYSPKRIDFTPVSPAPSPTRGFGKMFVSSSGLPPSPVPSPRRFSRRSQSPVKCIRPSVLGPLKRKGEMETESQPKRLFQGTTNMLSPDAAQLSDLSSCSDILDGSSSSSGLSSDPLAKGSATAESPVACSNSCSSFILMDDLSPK
UniProt Q96A26: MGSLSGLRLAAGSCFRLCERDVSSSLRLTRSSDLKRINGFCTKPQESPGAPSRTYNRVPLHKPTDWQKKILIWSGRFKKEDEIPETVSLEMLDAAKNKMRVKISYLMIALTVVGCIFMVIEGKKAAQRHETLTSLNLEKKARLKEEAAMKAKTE
UniProt Q9Y624, whole entry, looked up, stated change not applied: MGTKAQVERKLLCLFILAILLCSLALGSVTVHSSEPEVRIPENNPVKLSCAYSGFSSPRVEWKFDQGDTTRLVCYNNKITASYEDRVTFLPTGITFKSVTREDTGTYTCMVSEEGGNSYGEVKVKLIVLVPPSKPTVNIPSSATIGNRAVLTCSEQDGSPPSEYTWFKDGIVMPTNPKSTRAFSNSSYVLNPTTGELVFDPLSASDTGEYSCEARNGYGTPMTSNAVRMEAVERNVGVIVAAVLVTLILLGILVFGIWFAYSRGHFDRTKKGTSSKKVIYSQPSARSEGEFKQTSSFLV
UniProt O60645: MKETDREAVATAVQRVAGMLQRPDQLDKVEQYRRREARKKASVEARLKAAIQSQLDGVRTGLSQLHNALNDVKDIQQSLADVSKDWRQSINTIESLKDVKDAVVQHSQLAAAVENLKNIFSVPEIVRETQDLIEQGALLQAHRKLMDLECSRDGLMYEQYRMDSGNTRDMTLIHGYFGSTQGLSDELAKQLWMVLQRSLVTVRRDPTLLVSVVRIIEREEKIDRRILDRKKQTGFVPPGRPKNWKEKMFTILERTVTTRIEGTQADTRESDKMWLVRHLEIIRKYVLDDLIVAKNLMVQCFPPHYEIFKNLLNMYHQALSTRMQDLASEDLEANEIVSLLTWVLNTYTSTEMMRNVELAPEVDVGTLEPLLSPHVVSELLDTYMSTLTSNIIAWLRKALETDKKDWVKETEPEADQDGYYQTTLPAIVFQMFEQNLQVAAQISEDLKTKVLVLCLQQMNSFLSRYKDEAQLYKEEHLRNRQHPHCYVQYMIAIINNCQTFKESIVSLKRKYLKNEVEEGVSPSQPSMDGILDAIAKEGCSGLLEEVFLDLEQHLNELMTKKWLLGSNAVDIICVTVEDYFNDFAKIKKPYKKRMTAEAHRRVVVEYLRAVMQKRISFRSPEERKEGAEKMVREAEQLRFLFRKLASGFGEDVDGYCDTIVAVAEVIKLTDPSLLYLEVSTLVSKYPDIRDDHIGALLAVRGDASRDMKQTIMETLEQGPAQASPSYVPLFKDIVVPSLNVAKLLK
UniProt Q96KR6: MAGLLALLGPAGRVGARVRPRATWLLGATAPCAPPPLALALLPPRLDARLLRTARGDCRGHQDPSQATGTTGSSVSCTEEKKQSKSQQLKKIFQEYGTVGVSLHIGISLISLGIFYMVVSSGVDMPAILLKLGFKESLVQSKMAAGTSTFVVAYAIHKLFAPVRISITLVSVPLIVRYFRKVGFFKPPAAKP
UniProt Q9NSI2: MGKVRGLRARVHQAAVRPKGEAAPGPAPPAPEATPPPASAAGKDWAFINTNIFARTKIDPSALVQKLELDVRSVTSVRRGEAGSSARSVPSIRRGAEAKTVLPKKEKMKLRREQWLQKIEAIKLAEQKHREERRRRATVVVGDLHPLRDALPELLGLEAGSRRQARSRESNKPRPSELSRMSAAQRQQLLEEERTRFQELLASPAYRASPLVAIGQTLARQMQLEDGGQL

The targets below were run with c1cn2cc(-c3ccc4cn[nH]c4c3)nc(Nc3ccc(N4CCOCC4)cc3)c2n1 [entospletinib] (assay: log2 fold change, soluble protein after heating vs DMSO (PISA); higher = thermal stabilisation; K562 lysate, 10 uM; active = over 0.2 and 3.5 SD of the protein, either way, in both replicates (recomputed)).
Summary of the method: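 Quantification was by TMTpro 16plex LC-MS/MS with equalised channel sums, applied to the supernatant after 21,000xg for 90 min. Samples were crude K562 extract at 1 mg/mL protein in PBS pH 7.4 with 1 mM MgCl2, treated with 10 μM compound for 30 min, heated for 3 min across 48°C-58°C, pooled and brought to 0.5% NP-40 at 4°C. Values are log-two fold changes in thermal stability relative to solvent controls, from duplicates.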

log2 fold change, inactive:
EXOSC8 (UniProt Q96B26) -0.02
FAM32A (UniProt Q9Y421) 0.08
FAM76A isoform 3 (UniProt Q8TAV0) 0.087
ETFA (UniProt P13804) -0.009
EYA3 (UniProt Q99504) -0.002
FAM20B (UniProt O75063) -0.005
FAM192A (UniProt Q9GZU8) 0.006
ERLIN2 (UniProt O94905) 0.016
FADS1, A0A0A0MR51 -0.028
EZH2 isoform 2 (UniProt Q15910) 0.022
FAM193A, A0A1B0GVL4 0.218
EXOC4 (UniProt Q96A65) -0.006
EXOSC3 (UniProt Q9NQT5) -0.035
FADD (UniProt Q13158) -0.051
FAHD2A (UniProt Q96GK7) 0.029
ETV4 (UniProt P43268) -0.009
FAM83D (UniProt Q9H4H8) 0.021
EXOSC7 (UniProt Q15024) 0.014
EXOC8 (UniProt Q8IYI6) -0.009
FAM122B isoform 3 (UniProt Q7Z309) -0.075
FAM162A (UniProt Q96A26) 0.005
F11R (UniProt Q9Y624) -0.011
EXOC3 (UniProt O60645) -0.026
FAM210B (UniProt Q96KR6) -0.078
FAM117A (UniProt Q9C073) 0.035
FAM207A (UniProt Q9NSI2) -0.008

Quoted from the entries so far for reference:
log2 fold change, inactive:
FAM76A isoform 3 (UniProt Q8TAV0) 0.087
ETFA (UniProt P13804) -0.009
EYA3 (UniProt Q99504) -0.002
FAM20B (UniProt O75063) -0.005
FAM192A (UniProt Q9GZU8) 0.006
ERLIN2 (UniProt O94905) 0.016
